In patent US20230312449A1, “CARBOXYLIC ACID COMPOUND, AND PREPARATION METHOD THEREFOR AND APPLICATION THEREOF” (BOTREE CYCLING SCI & TECH CO., LTD., priority 2020, published 2023):
“And” between values parts separate entries of the source, which are not always exact repeats. Identical values can stand only once.

How the values were obtained:
[1] = Back extraction performance of Compound BC195 loaded with metal ions
Description: Compound BC195 was dissolved in Escaid 110 and prepared as a 0.16 mol/L organic phase, and a 0.02 mol/L Ni^2+ sulfate solution was prepared as a feed liquid. The organic phase was saponified to a proportion of 50% with 10 mol/L NaOH aqueous solution, and the saponified organic phase extracted the feed solution with a phase ratio of 1:2, the equilibrium time was 15 min and the temperature was 25° C.
The organic phase loaded with Ni was back-extracted with 1 mol/L sulfuric acid aqueous solution, and during the back extraction, the phase ratio was 15:1, and the back extraction rate was more than 99%.

[2] = Extraction of a mixed metal sulfate solution by saponified extractant organic phase (extraction rate E%, separation coefficient β)
Description: In the embodiments of the present application, the metal ion concentration of the aqueous phase is determined by the inductively coupled plasma optical emission spectroscopy (ICP-OES), and the metal ion concentration of the organic phase is calculated by the difference subtraction method.
The distribution ratio D is a ratio of the metal ion content of the equilibrium organic phase to the metal ion content of the equilibrium aqueous phase after the first extraction (the metal ion concentration of the equilibrium aqueous phase is determined by the inductively coupled plasma optical emission spectroscopy (ICP-OES), and the metal ion concentration of the equilibrium organic phase is calculated by the difference subtraction method), i.e.,
D=Corg/Caq=(C′aq−Caq)/Caq (2)
In equation (2), Corg represents the metal ion concentration of the equilibrium organic phase after the first extraction; Caq represents the metal ion concentration of the equilibrium aqueous phase after the first extraction; C′aq represents the metal ion concentration of the aqueous phase before the first extraction.
The extraction rate E is the percentage of the amount of the extracted substance transferred to organic phase from aqueous phase during the extraction process against the total amount of the extracted substances in the original aqueous phase, i.e.,
E=100%×(C′aq−Caq)/C′aq (3)
In equation (3), Caq represents the metal ion concentration of the equilibrium aqueous phase after the first extraction; C′aq represents the metal ion concentration of the aqueous phase before the first extraction.
The separation coefficient β refers to a ratio of the distribution ratios of two substances to be separated in two phases under certain conditions, which is also known as extraction separation factor.
Compound BC196 was dissolved in a diluent, 260 # solvent oil, and prepared as a 0.6 mol/L organic phase, and a mixed sulfate solution was prepared as an aqueous phase, which contained 0.02 mol/L Cu^2+, Zn^2+, Fe^3+, Al^3+, Cd^2+, Ni^2+, Co^2+, Mn^2+, Ca^2+, Mg^2+ and Li^+. The organic phase was firstly saponified by 11.9 mol/L sodium hydroxide aqueous solution with a saponification rate of 0-70%, the initial pH of the aqueous phase remained unchanged at 2.08, and the aqueous phase was extracted by the organic phase with different saponification degree at a volume ratio of 1:1, the equilibrium time was 15 min and the temperature was 25° C.
After extraction, the extraction rate and equilibrium pH were plotted to obtain the extraction rate E%-pH curve of Compound BC196 for each ion.
This comparative example differs from Performance Example 1 in that Compound BC196 was replaced by Extractant CA12 (commercially available, with an acid content of 98%).

[3] = Back extraction performance of Compound BC196 loaded with metal ions
Description: Compound BC196 was dissolved in dodecane and prepared as a 0.33 mol/L organic phase, and the aqueous phase used a 0.02 mol/L Ni^2+ sulfate solution to be a feed solution. The organic 20 phase was saponified with 9 mol/L ammonia, the saponification proportion was 50%, the saponified organic phase extracted the feed solution with a phase ratio of 1:4, the equilibrium time was 15 min and the temperature was 25° C.
The organic phase loaded with Ni was back-extracted with 1 mol/L sulfuric acid aqueous solution, and during the back extraction, the phase ratio was 10:1, and the back extraction rate was more than 99%.

[4] = Equilibrium pH 4.5, 0.6 mol/L in 260 # solvent oil, O:A 1:1, 15 min, 25° C.

## CCCCCCC(OCC(CC)CCCC)C(=O)O (stereo not shown) [Compound BC195]
[1]; 0.16 mol/L in Escaid 110, saponified 50% with 10 mol/L NaOH, 0.02 mol/L Ni^2+ feed, phase ratio 1:2, 15 min, 25° C.
  Ni content of the organic phase loaded with Ni: 0.04 mol/L
[1]; 1 mol/L sulfuric acid aqueous solution, phase ratio 15:1
  back extraction rate: more than 99%

## CCCCCC(CC)OC(CCCC)C(=O)O (stereo not shown) [Compound BC196]
[2]; Cd^2+, row Co^2+
  Separation Coefficient β Cd^2+/Co^2+: 6.01
[2]; Cd^2+, row Li^+
  Separation Coefficient β Cd^2+/Li^+: 134.77
[2]; Cd^2+, row Mg^2+
  Separation Coefficient β Cd^2+/Mg^2+: 194.29
[2]; Cd^2+, row Mn^2+
  Separation Coefficient β Cd^2+/Mn^2+: 8.36
[2]; Cd^2+, row Ni^2+
  Separation Coefficient β Cd^2+/Ni^2+: 4.29
[2]; Cd^2+, row Zn^2+
  Separation Coefficient β Cd^2+/Zn^2+: 1.94
[2]; Co^2+, row Li^+
  Separation Coefficient β Co^2+/Li^+: 22.43
[2]; Co^2+, row Mg^2+
  Separation Coefficient β Co^2+/Mg^2+: 32.33
[2]; Co^2+, row Mn^2+
  Separation Coefficient β Co^2+/Mn^2+: 1.39
[2]; Cu^2+, row Al^3+
  Separation Coefficient β Cu^2+/Al^3+: 53.22
[2]; Cu^2+, row Ca^2+
  Separation Coefficient β Cu^2+/Ca^2+: 7.57
[2]; Cu^2+, row Cd^2+
  Separation Coefficient β Cu^2+/Cd^2+: 6.00
[2]; Cu^2+, row Co^2+
  Separation Coefficient β Cu^2+/Co^2+: 36.05
[2]; Cu^2+, row Li^+
  Separation Coefficient β Cu^2+/Li^+: 808.51
[2]; Cu^2+, row Mg^2+
  Separation Coefficient β Cu^2+/Mg^2+: 1165.64
[2]; Cu^2+, row Mn^2+
  Separation Coefficient β Cu^2+/Mn^2+: 50.13
[2]; Cu^2+, row Ni^2+
  Separation Coefficient β Cu^2+/Ni^2+: 25.71
[2]; Cu^2+, row Zn^2+
  Separation Coefficient β Cu^2+/Zn^2+: 11.64
[2]; [4]
  Extraction Rate E % Al^3+: 26.3%
  Extraction Rate E % Ca^2+: 71.5%
  Extraction Rate E % Cd^2+: 76.0%
  Extraction Rate E % Co^2+: 25-45% and 34.5%
  Extraction Rate E % Cu^2+: 95.0%
  Extraction Rate E % Fe^3+: 90.2%
  Extraction Rate E % Li^+: 2.3%
  Extraction Rate E % Mn^2+: 25-45% and 27.5%
  Extraction Rate E % Ni^2+: 25-45% and 42.5%
[2]; Ni^2+, row Co^2+
  Separation Coefficient β Ni^2+/Co^2+: 1.40
[2]; Ni^2+, row Li^+
  Separation Coefficient β Ni^2+/Li^+: 31.45
[2]; Ni^2+, row Mg^2+
  Separation Coefficient β Ni^2+/Mg^2+: 45.34
[2]; Ni^2+, row Mn^2+
  Separation Coefficient β Ni^2+/Mn^2+: 1.95
[2]; Zn^2+, row Co^2+
  Separation Coefficient β Zn^2+/Co^2+: 3.10
[2]; Zn^2+, row Li^+
  Separation Coefficient β Zn^2+/Li^+: 69.447
[2]; Zn^2+, row Mg^2+
  Separation Coefficient β Zn^2+/Mg^2+: 100.12
[2]; Zn^2+, row Mn^2+
  Separation Coefficient β Zn^2+/Mn^2+: 4.31
[2]; Zn^2+, row Ni^2+
  Separation Coefficient β Zn^2+/Ni^2+: 2.21
[2]; column Al^3+, row Cd^2+
  Separation Coefficient β Al^3+/Cd^2+: 0.11
[2]; column Al^3+, row Co^2+
  Separation Coefficient β Al^3+/Co^2+: 0.68
[2]; column Al^3+, row Li^+
  Separation Coefficient β Al^3+/Li^+: 15.19
[2]; column Al^3+, row Mg^2+
  Separation Coefficient β Al^3+/Mg^2+: 21.90
[2]; column Al^3+, row Mn^2+
  Separation Coefficient β Al^3+/Mn^2+: 0.94
[2]; column Al^3+, row Ni^2+
  Separation Coefficient β Al^3+/Ni^2+: 0.48
[2]; column Al^3+, row Zn^2+
  Separation Coefficient β Al^3+/Zn^2+: 0.22
[2]; column Ca^2+, row Al^3+
  Separation Coefficient β Ca^2+/Al^3+: 7.03
[2]; column Ca^2+, row Cd^2+
  Separation Coefficient β Ca^2+/Cd^2+: 0.79
[2]; column Ca^2+, row Co^2+
  Separation Coefficient β Ca^2+/Co^2+: 4.76
[2]; column Ca^2+, row Li^+
  Separation Coefficient β Ca^2+/Li^+: 106.77
[2]; column Ca^2+, row Mg^2+
  Separation Coefficient β Ca^2+/Mg^2+: 153.93
[2]; column Ca^2+, row Mn^2+
  Separation Coefficient β Ca^2+/Mn^2+: 6.62
[2]; column Ca^2+, row Ni^2+
  Separation Coefficient β Ca^2+/Ni^2+: 3.40
[2]; column Ca^2+, row Zn^2+
  Separation Coefficient β Ca^2+/Zn^2+: 1.54
[2]; column Mg^2+, row Li^+
  Separation Coefficient β Mg^2+/Li^+: 0.69
[2]; column Mn^2+, row Li^+
  Separation Coefficient β Mn^2+/Li^+: 16.13
[2]; column Mn^2+, row Mg^2+
  Separation Coefficient β Mn^2+/Mg^2+: 23.25
[2]; from FIG. 1 and Table 1
  extraction sequence: Fe^2+, Cu^2+, Ca^2+, Al^2+, Cd^2+, Zn^2+, Ni^2+, Co^2+, Mn^2+, Mg^2+ and Li^2+
[2]; pH 4.5
  Separation coefficient βNi/Co: 1.40
  Separation coefficient βNi/Mg: 45.34
  Separation coefficient βNi/Mn: 1.95
  Separation coefficient βNi/Zn: 2.21
[2]; same test condition
  separation coefficients for each ion higher compared with CA12: 20-30%
[3]; 0.33 mol/L in dodecane, saponified 50% with 9 mol/L ammonia, 0.02 mol/L Ni^2+ feed, phase ratio 1:4, 15 min, 25° C.
  Ni content of the organic phase loaded with Ni: 0.08 mol/L
[3]; 1 mol/L sulfuric acid aqueous solution, phase ratio 10:1
  back extraction rate: more than 99%
